The values below come from US20200376030A1 (NANJING IASO BIOTHERAPEUTICS, published 2020).

Assay [1] deals with T1, biotinylated BCMA protein (human, UniProt Q02223 1-54, biotinylated (site not stated)).
T1 construct: The construct of the soluble labelled protein is not described
T1 sequence (looked up): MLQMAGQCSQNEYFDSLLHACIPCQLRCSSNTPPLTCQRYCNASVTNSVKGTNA
The assay is described as follows: flow cytometry, biotinylated BCMA and PE streptavidin on transiently transfected 293T cells. On the technique in general: A flow cytometer gives signals particle by particle.

Assay [2] deals with T1, biotinylated BCMA protein. The assay is described as follows: flow cytometry, gradient-diluted biotinylated BCMA and PE streptavidin on transiently transfected 293T cells.

B1: CAR0009 (other)
chain: DIVLTQSPPSLAMSLGKRATISCRASESVTILGSHLIHWYQQKPGQPPTLLIQLASNVQTGVPARFSGSGSRTDFTLTIDPVEEDDVAVYYCLQSRTIPRTFGGGTKLEIKGSTSGSGKPGSGEGSTKGQIQLVQSGPELKKPGETVKISCKASGYTFTDYSINWVKRAPGKGLKWMGWINTETREPAYAYDFRGRFAFSLETSASTAYLQINNLKYEDTATYFCALDYSYAMDYWGQGTSVTVSSFVPVFLPAKPTTTPAPRPPTPAPTIASQPLSLRPEACRPAAGGAVHTRGLDFACDIYIWAPLAGTCGVLLLSLVITLYCNHRNRSKRSRLLHSDYMNMTPRRPGPTRKHYQPYAPPRDFAAYRSRVKFSRSADAPAYQQGQNQLYNELNLGRREEYDVLDKRRGRDPEMGGKPRRKNPQEGLYNELQKDKMAEAYSEIGMKGERRRGKGHDGLYQGLSTATKDTYDALHMQALPPR
notes: also called CAR molecule encoded by the PXL0009 plasmid
A word on the EC50: it is the concentration giving half of the maximal effect. A low value points to greater potency. B1: the “Percentage of CAR marked with 500 ng of BCMA” value in assay [1] turned out to be 18%. Moreover, the EC50 in assay [2] is 1.59 nM.

B2: CAR0041 (other)
chain: YPYDVPDYADIVLTQSPPSLAMSLGKRATISCRASESVTILGSHLIHWYQQKPGQPPTLLIQLASNVQTGVPARFSGSGSRTDFTLTIDPVEEDDVAVYYCLQSRTIPRTFGGGTKLEIKGSTSGSGKPGSGEGSTKGQIQLVQSGPELKKPGETVKISCKASGYTFTDYSINWVKRAPGKGLKWMGWINTETREPAYAYDFRGRFAFSLETSASTAYLQINNLKYEDTATYFCALDYSYAMDYWGQGTSVTVSSFVPVFLPAKPTTTPAPRPPTPAPTIASQPLSLRPEACRPAAGGAVHTRGLDFACDIYIWAPLAGTCGVLLLSLVITLYCNHRNRSKRSRLLHSDYMNMTPRRPGPTRKHYQPYAPPRDFAAYRSRVKFSRSADAPAYQQGQNQLYNELNLGRREEYDVLDKRRGRDPEMGGKPRRKNPQEGLYNELQKDKMAEAYSEIGMKGERRRGKGHDGLYQGLSTATKDTYDALHMQALPPR
notes: The signal peptide is left out; The T2A residues left after cleavage and the GFP are not included; also called CAR molecule encoded by the PXL0041 plasmid
Consider B2, for which the “Percentage of CAR marked with 500 ng of BCMA” value in assay [1] came to 16.1%. In addition, the EC50 in assay [2] was determined as 0.3 nM.
